Measurements taken from patent publication US20250099515A1, “LACTOBACILLUS ACIDOPHILUS TO INCREASE AGMATINE PRODUCTION BY MICROBIOTA” (SOCIETE DES PRODUITS NESTLE S.A., priority 2021, published 2025).

Test system: faeces extracts
Experiment: In house batch fermentation of donor faeces extracts
Format: cell-based
Conditions: fermentation with arginine alone; average from concentration at 6 h + 24 h − 0 h

| Compound | Average concentration in house batch [µM] |
| --- | --- |
| NCCCCNCCCN [Spermidine, spermidine] | 11.95 |
| NCCCCN [Putrescine, putrescine] | 5141.7 |
| NCCCCN=C(N)N [Agmatine, (4-aminobutyl) guanidine] | 35.29 |
